According to PubChem BioAssay AID493014 (National Center for Advancing Translational Sciences (NCATS), 2011):
Some of the results follow. These are further read-outs of the screen, such as a control signal, another cell line or another target. No call is given for them. The list favours compounds with an active or inconclusive main result. Potencies come from curve fits of mixed quality, noted in brackets.

Assay: qHTS Assay to Find Inhibitors of Chronic Active B-Cell Receptor Signaling
Settings: ABC-DLBCL IkBa-CBG/CBR reporter, luminescence ratio (green luciferase fused to IkBa over red control in TMD8 lymphoma cells), 4 h
Summary of the method: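 Doxycycline induced both beetle luciferases in TMD8 lymphoma cells; IKK-driven degradation limits the IkappaBalpha-fused green signal, while red luminescence normalises for cell number and nonspecific effects. Compounds tested up to 46 uM, 4 hrs.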

[1] = measured here: CBR red luminescence, cell number
[2] = measured here: IkBa-CBG green luminescence

Compound | AC50 [1] | AC50 [2]
CCOCC(=O)Nc1cc(C(=O)NCCc2ccccc2)ccc1Cl | 11.2 µM [falling, partial curve] | –
CCc1ccc(C(CNC(=O)c2ccc3c(=O)n(-c4ccccc4F)c(=S)[nH]c3c2)N(C)C)cc1 (configuration not stated) | 12.6 µM [falling, single point] | –
CN1CCN(C(=O)c2ccc3nc(-c4ccccc4)c(-c4ccccc4)nc3c2)CC1 | 35.5 µM [falling, single point] | –
COc1cc2c(cc1OC)[C@@H](NC(=O)CCc1ccccc1)[C@H](O)C2 | 20.6 µM [rising, partial curve, poor fit] | –
CCN(C(=O)COC(=O)c1cccnc1Nc1ccccc1F)C1CCS(=O)(=O)C1 (configuration not stated) | 0.411 µM [falling, full curve] | –
COc1ccc(C(C)=O)cc1COc1ccccc1[N+](=O)[O-] | 2.24 µM [rising, full curve, poor fit] | –
Cc1ccc(C(=O)N2CCC(Cc3ccccc3)CC2)cc1[N+](=O)[O-] | 17.8 µM [falling, partial curve, poor fit] | –
CN1C(=O)/C(=C\c2ccccc2F)Sc2ccc(C(=O)NC3CCN(Cc4ccccc4)CC3)cc21 | 35.5 µM [falling, single point] | –
c1ccc(OCCCCn2cnc3ccccc32)cc1 | 7.31 µM [rising, partial curve, poor fit] | –
Cc1nonc1C(=O)N/N=C/c1ccncc1 | 15.8 µM [falling, partial curve, poor fit] | –
C=CC[C@H](CC(=O)OC(C)(C)C)C(=O)OC[C@@H]1CCCN1C(=O)[C@@H](CC=C)CC(=O)NCCO | 32.6 µM [rising, single point] | –
O=C(CSc1nc(-c2ccc(F)cc2)cs1)N1CCc2ccccc21 | 0.891 µM [rising, full curve] | –
COc1ccc(C(=O)NC(Nc2ccc(C)cc2)C(Cl)(Cl)Cl)cc1 (configuration not stated) | 23.1 µM [falling, single point] | 29.1 µM [rising, partial curve, poor fit]
c1ccc(C[C@H]2CN=C(Nc3ccccc3)N2CCC2CCCC2)cc1 | 14.6 µM [falling, partial curve, poor fit] | –
COc1ccccc1Nc1nnc(SCc2cc(=O)n3ccsc3n2)s1 | 35.5 µM [falling, single point] | –
O=C(CNC(=O)c1ccc(Br)cc1)N=Nc1c(O)[nH]c2ccc([N+](=O)[O-])cc12 | 0.112 µM [falling, full curve, poor fit] | –
O=C(NCC1COc2ccccc2O1)c1ccco1 (configuration not stated) | 5.62 µM [rising, single point] | –
Cc1ccc(S(=O)(=O)CCSC(=N)N)cc1 | 5.01 µM [falling, partial curve] | 20 µM [falling, single point]
CCCC(=O)Nc1cc(-c2nc3ncccc3o2)ccc1C | 10.3 µM [rising, partial curve] | –
CCOC(=O)N1CCN(c2c(NCCN3CCN(Cc4ccccc4)CC3)c(=O)c2=O)CC1 | 6.51 µM [rising, single point] | –
COc1ccc(Cl)cc1/C=C/c1ccc2cccc(O)c2n1 | 6.31 µM [rising, partial curve, poor fit] | 11.2 µM [falling, partial curve, poor fit]

Compound | AC50 [1] | AC50 [2]
c1ccc(-c2nc(-c3ccc(-c4ccon4)s3)no2)cc1 | 6.31 µM [falling, full curve, poor fit] | –
COC(=O)c1ccc(CSc2ccccc2C)o1 | 17.8 µM [falling, partial curve, poor fit] | –
COc1nccc(-c2ccc(F)cc2)c1C#N | 1.41 µM [falling, partial curve, poor fit] | –
CCOc1nc(C)ccc1-c1noc(-c2cccnc2)n1 | 3.16 µM [rising, partial curve, poor fit] | –
Cc1nc(NC(=O)/C=C/c2ccc(Cl)cc2Cl)sc1C(=O)N(C)C | 20.6 µM [falling, single point] | –
O=C(CSc1ncn[nH]1)N1N=C2/C(=C/c3ccco3)CCCC2C1c1ccco1 (configuration not stated) | 23.1 µM [falling, single point] | –
C=C(C)Cn1c(Sc2nc3ccccc3[nH]2)nc2c1c(=O)[nH]c(=O)n2C | 35.5 µM [falling, single point] | –
CC1Cc2cc(/C=C3/SC(=S)NC3=O)ccc2O1 (configuration not stated) | 25.1 µM [falling, single point] | –
COc1ccc(Cc2nc3ccc(S(N)(=O)=O)cc3[nH]2)cc1OC | 20.6 µM [rising, single point] | –
COCCCNC(=O)CNC(=S)N(Cc1cc(OC)c(OC)c(OC)c1)C1CCCC1 | 18.4 µM [rising, partial curve, poor fit] | –
COc1cccc(C(=O)Nc2nnc(-c3ccc(Cl)cc3)o2)c1 | 3.55 µM [falling, full curve] | –
Cc1ccc([N+](=O)[O-])cc1S(=O)(=O)N1CCn2cccc2C1c1ccccc1 (configuration not stated) | 15.8 µM [rising, partial curve, poor fit] | –
Cc1cccc(N(Cc2ccccc2)C(=O)CCl)c1 | 1.12 µM [falling, partial curve, poor fit] | –
O=C(Cc1ccccc1)N1CCN(C(=O)c2ccco2)CC1 | 29.1 µM [rising, single point] | –
CC(=O)c1ccc(NC(=O)CN2CCC(NC(=O)C3CCCCC3)CC2)cc1 | 14.1 µM [rising, single point] | –
Cc1ccc(/C=N/Nc2cc(C)nc(N3CCOCC3)n2)cc1 | 0.251 µM [rising, full curve, poor fit] | –
CN(c1ccccc1)c1nc(N)c([N+](=O)[O-])c(Nc2ccccc2)n1 | 0.794 µM [rising, full curve] | –
COc1cc(NC(=O)C/C(C)=N/NC(=O)C2CCCCC2)c(OC)cc1Cl | 20 µM [falling, single point] | –
CC(NC(=O)c1ccccc1)C(=O)N/N=C/c1cccc([N+](=O)[O-])c1 (configuration not stated) | 35.5 µM [falling, single point] | –
CCOC(=O)CNC(=O)C1COc2ccccc2O1 (configuration not stated) | 3.16 µM [falling, single point] | –
CC(=O)C1=C(C)NC(=O)NC1c1ccccc1 (configuration not stated) | 5.62 µM [rising, single point] | –

Look-ups from the entries so far.
Entry for C=CC[C@H](CC(=O)OC(C)(C)C)C(=O)OC[C@@H]1CCCN1C(=O)[C@@H](CC=C)CC(=O)NCCO under AC50 [1]: 32.6 µM [rising, single point]
Entry for Cc1ccc(/C=N/Nc2cc(C)nc(N3CCOCC3)n2)cc1 under AC50 [1]: 0.251 µM [rising, full curve, poor fit]
Entry for COc1ccccc1Nc1nnc(SCc2cc(=O)n3ccsc3n2)s1 under AC50 [1]: 35.5 µM [falling, single point]
Entry for COc1ccc(C(C)=O)cc1COc1ccccc1[N+](=O)[O-] under AC50 [1]: 2.24 µM [rising, full curve, poor fit]

The list goes on.

Compound | AC50 [1] | AC50 [2]
CN(C(=O)c1ccco1)c1nc(-c2ccc(Cl)cc2)cs1 | 1 µM [rising, full curve, poor fit] | –
CCc1nnc(NC(=O)c2cccc(OC)c2)s1 | 29.1 µM [falling, single point] | –
Oc1csc(Cc2nc(-c3ccc4ccccc4c3)cs2)n1 | 7.94 µM [rising, partial curve, poor fit] | –
COC(=O)c1[nH]c2ccc(Br)cc2c1NC(=O)CN1CCN(C2CCCCC2)CC1 | 17.8 µM [rising, partial curve] | –
Cc1cc(-c2ccccc2)nc(Oc2ccc(C(C)(C)C)cc2)c1S(C)(=O)=O | 14.1 µM [rising, single point] | –
Cc1ccc(NC(=O)c2cnn(C)c2)cc1[N+](=O)[O-] | 29.1 µM [rising, partial curve, poor fit] | –
CCN(CC)S(=O)(=O)c1ccc(S(=O)(=O)N2CCCC2)cc1 | 3.55 µM [falling, partial curve, poor fit] | –
COc1ccc(CCNC(=O)c2cc(COc3c(C)cccc3C)on2)c(OC)c1 | 14.1 µM [rising, single point] | –
CCc1cccc(NC(=O)c2cccc(S(=O)(=O)N3CCN(C)CC3)c2)c1 | 3.98 µM [rising, full curve, poor fit] | –
CCO[C@H]1OC(C(=O)NCc2ccccc2)=C[C@@H](c2ccc(C(F)(F)F)cc2)[C@@H]1CCCO | 35.5 µM [falling, single point] | –
NC(=O)N/N=C/c1ccc(-c2cccc(C(F)(F)F)c2)o1 | 14.1 µM [rising, partial curve] | –
COc1ccc(Br)cc1CNC(=O)CCSCc1ccc(C)cc1 | 20 µM [falling, single point] | –
CCn1c(SCC(=O)N/N=C/C=C/c2ccccc2[N+](=O)[O-])nnc1-c1ccc(Cl)cc1 | 32.6 µM [falling, single point] | –
CC(O)[C@H]1CNC(=O)C(=O)N1CCCCC1CCCCC1 (some centres not stated) | 6.31 µM [falling, single point] | –
CCC(C)c1ccc(NC(=S)NCc2ccccc2OC)cc1 (configuration not stated) | 22.4 µM [falling, single point] | –
Cc1cc(NC(=S)Nc2ccc(C)c(Cl)c2)n[nH]1 | 14.1 µM [rising, partial curve] | 17.8 µM [falling, partial curve, poor fit]
COc1ccc(-c2cc(=NC(CC(C)C)C(=O)O)c3cc(C)ccc3o2)cc1 (configuration not stated) | 0.146 µM [rising, full curve, poor fit] | –
O=C(CSc1nnc(-c2c[nH]c3ccccc23)o1)N1c2ccccc2CCc2ccccc21 | 1.58 µM [falling, full curve, poor fit] | –
Cc1ccccc1OCC(=O)Nc1cccc(N(C)S(C)(=O)=O)c1 | 18.4 µM [falling, partial curve] | –
Fc1ccc(-c2ccc(/C=N\n3cnnc3)o2)cc1Cl | 3.66 µM [falling, partial curve] | –
Cc1ccc(Cl)cc1-n1ncc2c(NCCCc3ccccc3)ncnc21 | 35.5 µM [falling, single point] | –
